The values below are quoted from earlier work in patent publication US12329745B2, “Methods and compositions for treating glucocorticoid excess” (Sparrow Pharmaceuticals, Inc., priority 2022, dated 2025).

Each structure is given as a SMILES string.

One data set relates to human HSD-1. The conditions noted are these: cited from earlier work.
With `CC(C)(C)c1c(C(=O)NC2C3CC4CC(C3)CC2C4)cnn1-c1ccc(C(=O)O)cc1` (centres unmarked) [AZD8329, 4-(4-(((1r,3r,5r,7r)-adamantan-2-yl)carbamoyl)-5-(tert-butyl)-1H-pyrazol-1-yl)benzoic acid], the “ternary complex with NADPH in structure bound to HSD-1” value is on record as “do not form ternary complexes that include NADPH or do so only via water molecules”.

For `CCCSc1nc(N2CCC[C@@H](CC(=O)O)C2)ccc1C(=O)NC1CCCCC1` [AZD4017, (S)-2-(1-(5-(cyclohexylcarbamoyl)-6-(propylthio)pyridin-2-yl)piperidin-3-yl)acetic acid], the “ternary complex with NADPH in structure bound to HSD-1” value is “do not form ternary complexes that include NADPH or do so only via water molecules”.

Still in this data set, the particulars now being: structure bound to HSD-1; cited from earlier work.
Take `COc1ccc(OC(C)(C)C(=O)NC2C3CC4CC2CC(C(N)=O)(C4)C3)cc1` [Compound A, (1s,3R,5S,7s)-4-(2-(4-methoxyphenoxy)-2-methylpropanamido)adamantane-1-carboxamide]: the Backbone interaction entry is “No”, the K187 interaction entry is given as “No”, the S170 interaction entry is reported as “Yes” and the Y183 interaction entry was “Yes”.

With `CC(C)[C@H]1SC(Nc2ccccc2F)=NC1=O` [Compound C, (5R)-2-[(2-fluorophenyl)amino]-5-(1-methylethyl)-1,3-thiazol-4(5H)-one], the Backbone interaction result was “No”, the K187 interaction entry was “No”, the S170 interaction entry is “Yes” and the Y183 interaction result was “Yes”.

In the case of `C[C@](O)(c1ccc(S(=O)(=O)c2ccc(C#N)cc2CCF)cc1)C(F)(F)F` [Compound D, 3-(2-fluoroethyl)-4-((4-[(2S)-1,1,1-trifluoro-2-hydroxypropan-2-yl]phenyl)sulfonyl)benzonitrile], the Backbone interaction entry is reported as “Yes”, the K187 interaction entry is on record as “No”, the S170 interaction result was “No” and the Y183 interaction result is on record as “No”.

With `O=C(N1CCC(c2cnc[nH]2)CC1)N1CCCc2ccccc21` [Compound B, 3,4-dihydroquinolin-1(2H)-yl[4-(1H-imidazol-5-yl)piperidin-1-yl]methanone], the Backbone interaction result was “No”, the K187 interaction result is “No”, the S170 interaction result is recorded as “Yes” and the Y183 interaction entry was “Yes”.

`CC(C)(O)c1cccn2c(C3(c4ccc(Cl)cc4)CC3)nnc12` [BMS-823778, 2-(3-(1-(4-chlorophenyl)cyclopropyl)-[1,2,4]triazolo[4,3-a]pyridin-8-yl)propan-2-ol]: the Backbone interaction entry is on record as “No”, the K187 interaction entry is “No”, the S170 interaction entry is “Yes” and the Y183 interaction result is recorded as “Yes”.

`CC(C)(C)N1CCN(c2ccc(N3CCN(C(=O)NC4C5CC6CC4CC(C(N)=O)(C6)C5)c4ccccc43)nc2)CC1` [SAR184841, 4-(5-(4-(tert-butyl)piperazin-1-yl)pyridin-2-yl)-N-((1R,3S,5s,7s)-5-carbamoyladamantan-2-yl)-3,4-dihydroquinoxaline-1(2H)-carboxamide]: the Backbone interaction entry was “No”, the K187 interaction entry is “No”, the S170 interaction entry is on record as “Yes” and the Y183 interaction result is given as “Yes”.
